Experimental data taken from patent US8217142 (dated 2012).

Experiment: general procedure: solution-phase peptide synthesis; DIC/HOBt; HBTU/HOBt/DIEA; HBTU/HOOBt/DIPEA; DIC/HOOBt/DIPEA
Conditions: coupling step

Boc-(Lys(Z)-Leu4)4Lys(Z)-OBzI
step yield: 99.7%
